Measurements from PMC12099056, “Targeting the Exonic Circular OGT RNA/O-GlcNAc Transferase/Forkhead Box C1 Axis Inhibits Asparagine- and Alanine-Mediated Ferroptosis Repression in Neuroblastoma Progression” (Research, 2025).
No constants are given. Whether binding was seen depends on the method and setting. Binding seen in cells or lysates may run through a third protein. Some binding calls cover weakened binding; strength is not graded here. For some assays here: Where a sequence is shown, tags or fusion partners need not be part of it.

T1: forkhead box C1 (human (endogenous in IMR-32 and SK-N-BE(2))) (UniProt Q12948)
T1 sequence: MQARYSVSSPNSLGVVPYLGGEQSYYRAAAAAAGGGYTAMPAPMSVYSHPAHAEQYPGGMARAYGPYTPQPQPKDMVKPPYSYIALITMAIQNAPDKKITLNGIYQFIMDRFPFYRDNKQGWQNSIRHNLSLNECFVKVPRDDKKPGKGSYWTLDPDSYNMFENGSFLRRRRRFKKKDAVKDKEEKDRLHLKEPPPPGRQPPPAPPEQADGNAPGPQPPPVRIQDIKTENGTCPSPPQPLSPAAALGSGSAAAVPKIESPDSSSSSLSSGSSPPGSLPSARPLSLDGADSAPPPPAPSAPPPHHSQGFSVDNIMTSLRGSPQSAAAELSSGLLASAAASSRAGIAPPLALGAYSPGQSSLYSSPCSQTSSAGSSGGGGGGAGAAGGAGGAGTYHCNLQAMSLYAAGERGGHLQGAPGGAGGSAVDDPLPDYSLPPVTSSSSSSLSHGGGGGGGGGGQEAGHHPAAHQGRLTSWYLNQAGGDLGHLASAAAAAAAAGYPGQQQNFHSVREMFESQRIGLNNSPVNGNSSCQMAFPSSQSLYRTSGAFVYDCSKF

T2: FOXC1 BiFC construct (human) (UniProt Q12948)
T2 sequence: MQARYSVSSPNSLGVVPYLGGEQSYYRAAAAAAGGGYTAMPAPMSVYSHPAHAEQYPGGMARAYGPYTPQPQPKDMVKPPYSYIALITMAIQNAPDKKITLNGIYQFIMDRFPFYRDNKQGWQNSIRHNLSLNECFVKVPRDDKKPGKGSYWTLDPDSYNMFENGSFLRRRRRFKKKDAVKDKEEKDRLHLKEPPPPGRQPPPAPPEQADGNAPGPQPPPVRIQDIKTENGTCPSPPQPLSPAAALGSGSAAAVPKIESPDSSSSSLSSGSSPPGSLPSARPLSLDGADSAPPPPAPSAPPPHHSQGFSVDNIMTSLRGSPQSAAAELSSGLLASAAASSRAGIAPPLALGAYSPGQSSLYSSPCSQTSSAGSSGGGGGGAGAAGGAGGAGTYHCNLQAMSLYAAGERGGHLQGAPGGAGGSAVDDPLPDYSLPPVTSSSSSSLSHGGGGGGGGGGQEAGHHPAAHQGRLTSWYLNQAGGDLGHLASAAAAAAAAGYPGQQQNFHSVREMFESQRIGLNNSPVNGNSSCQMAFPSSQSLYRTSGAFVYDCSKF

T3: Flag-tagged FOXC1 (wild-type) (human) (UniProt Q12948)
T3 sequence: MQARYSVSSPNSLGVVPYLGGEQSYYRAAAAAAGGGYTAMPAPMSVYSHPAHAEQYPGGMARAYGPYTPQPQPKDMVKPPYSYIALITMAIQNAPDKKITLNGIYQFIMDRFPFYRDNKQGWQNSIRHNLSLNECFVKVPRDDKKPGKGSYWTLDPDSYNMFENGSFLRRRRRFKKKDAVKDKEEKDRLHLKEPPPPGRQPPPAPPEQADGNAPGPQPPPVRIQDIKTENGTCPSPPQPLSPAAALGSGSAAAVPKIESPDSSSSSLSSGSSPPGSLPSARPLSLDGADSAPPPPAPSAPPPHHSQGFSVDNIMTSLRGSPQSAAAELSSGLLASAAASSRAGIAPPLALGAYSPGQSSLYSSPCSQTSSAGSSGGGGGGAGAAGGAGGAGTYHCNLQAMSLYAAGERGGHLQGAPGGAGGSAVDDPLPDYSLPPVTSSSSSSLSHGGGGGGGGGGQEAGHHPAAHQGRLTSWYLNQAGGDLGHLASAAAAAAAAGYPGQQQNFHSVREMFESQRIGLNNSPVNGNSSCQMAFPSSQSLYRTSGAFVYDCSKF


How the values were obtained:
[1] = molecular target: T1, forkhead box C1 (human (endogenous in IMR-32 and SK-N-BE(2))); assay: co-IP; IMR-32 cells stably transfected with empty vector (mock), ecircOGT or ecircOGT Mut, co-IP and Western blot
[2] = molecular target: T1, forkhead box C1 (human (endogenous in IMR-32 and SK-N-BE(2))); assay: co-IP; SK-N-BE(2) cells treated with solvent or miconazole nitrate (MN), co-IP and Western blot
[3] = molecular target: T1, forkhead box C1 (human (endogenous in IMR-32 and SK-N-BE(2))); assay: co-IP; validating co-IP and Western blot of endogenous proteins in IMR-32 cells
[4] = molecular target: T1, forkhead box C1 (human (endogenous in IMR-32 and SK-N-BE(2))); assay: co-IP; endogenous proteins; cells treated with control DMEM/F12 or EBSS for 6 h (text: SK-N-BE(2); legend: SH-SY5Y)
[5] = molecular target: T2, FOXC1 BiFC construct (human); assay: split reporter; BiFC; pBiFC-VC155 and pBiFC-VN173 constructs co-transfected for 24 h, confocal microscope
[6] = molecular target: T3, Flag-tagged FOXC1 (wild-type) (human); assay: co-IP; SH-SY5Y cells transfected with HA-tagged OGT and Flag-tagged FOXC1 (wild-type, truncations or mutants), co-IP and Western blot

| binding [1] | binding [2] | Binder | further results |
| --- | --- | --- | --- |
|  | binds | OGT-570aa, endogenous (protein, UniProt O15294 382-948) MHYKEAIRISPTFADAYSNMGNTLKEMQDVQGALQCYTRAIQINPAFADAHSNLASIHKDSGNIPEAIASYRTALKLKPDFPDAYCNLAHCLQIVCDWTDYDERMKKLVSIVADQLEKNRLPSVHPHHSMLYPLSHGFRKAIAERHGNLCLDKINVLHKPPYEHPKDLKLSDGRLRVGYVSSDFGNHPTSHLMQSIPGMHNPDKFEVFCYALSPDDGTNFRVKVMAEANHFIDLSQIPCNGKAADRIHQDGIHILVNMNGYTKGARNELFALRPAPIQAMWLGYPGTSGALFMDYIITDQETSPAEVAEQYSEKLAYMPHTFFIGDHANMFPHLKKKAVIDFKSNGHIYDNRIVLNGIDLKAFLDSLPDVKIVKMKCPDGGDNADSSNTALNMPVIPMNTIAEAVIEMINRGQIQITINGFSISNGLATTQINNKAATGEEVPRTIIVTTRSQYGLPEDAIVYCNFNQLYKIDPSTLQMWANILKRVPNSVLWLLRFPAVGEPNIQQYAQNMGLPQNRIIFSPVAPKEEHVRRGQLADVCLDTPLCNGHTTGMDVLWAGTPMVTMPGCHP |  |
| binds | binds | O-GlcNAc transferase (enzyme, UniProt O15294 1-1046) MASSVGNVADSTEPTKRMLSFQGLAELAHREYQAGDFEAAERHCMQLWRQEPDNTGVLLLLSSIHFQCRRLDRSAHFSTLAIKQNPLLAEAYSNLGNVYKERGQLQEAIEHYRHALRLKPDFIDGYINLAAALVAAGDMEGAVQAYVSALQYNPDLYCVRSDLGNLLKALGRLEEAKACYLKAIETQPNFAVAWSNLGCVFNAQGEIWLAIHHFEKAVTLDPNFLDAYINLGNVLKEARIFDRAVAAYLRALSLSPNHAVVHGNLACVYYEQGLIDLAIDTYRRAIELQPHFPDAYCNLANALKEKGSVAEAEDCYNTALRLCPTHADSLNNLANIKREQGNIEEAVRLYRKALEVFPEFAAAHSNLASVLQQQGKLQEALMHYKEAIRISPTFADAYSNMGNTLKEMQDVQGALQCYTRAIQINPAFADAHSNLASIHKDSGNIPEAIASYRTALKLKPDFPDAYCNLAHCLQIVCDWTDYDERMKKLVSIVADQLEKNRLPSVHPHHSMLYPLSHGFRKAIAERHGNLCLDKINVLHKPPYEHPKDLKLSDGRLRVGYVSSDFGNHPTSHLMQSIPGMHNPDKFEVFCYALSPDDGTNFRVKVMAEANHFIDLSQIPCNGKAADRIHQDGIHILVNMNGYTKGARNELFALRPAPIQAMWLGYPGTSGALFMDYIITDQETSPAEVAEQYSEKLAYMPHTFFIGDHANMFPHLKKKAVIDFKSNGHIYDNRIVLNGIDLKAFLDSLPDVKIVKMKCPDGGDNADSSNTALNMPVIPMNTIAEAVIEMINRGQIQITINGFSISNGLATTQINNKAATGEEVPRTIIVTTRSQYGLPEDAIVYCNFNQLYKIDPSTLQMWANILKRVPNSVLWLLRFPAVGEPNIQQYAQNMGLPQNRIIFSPVAPKEEHVRRGQLADVCLDTPLCNGHTTGMDVLWAGTPMVTMPGETLASRVAASQLTCLGCLELIAKNRQEYEDIAVKLGTDLEYLKKVRGKVWKQRISSPLFNTKQYTMELERLYLQMWEHYAAGNKPDHMIKPVEVTESA | binding [3]: binds; binding [4]: binds |

Second part, the binder before the results:

| Binder | binding [1] | binding [2] | further results |
| --- | --- | --- | --- |
| OGT-570aa encoded by exonic circular OGT RNA (ecircOGT), from stably transfected ecircOGT (protein, UniProt O15294 382-948) MHYKEAIRISPTFADAYSNMGNTLKEMQDVQGALQCYTRAIQINPAFADAHSNLASIHKDSGNIPEAIASYRTALKLKPDFPDAYCNLAHCLQIVCDWTDYDERMKKLVSIVADQLEKNRLPSVHPHHSMLYPLSHGFRKAIAERHGNLCLDKINVLHKPPYEHPKDLKLSDGRLRVGYVSSDFGNHPTSHLMQSIPGMHNPDKFEVFCYALSPDDGTNFRVKVMAEANHFIDLSQIPCNGKAADRIHQDGIHILVNMNGYTKGARNELFALRPAPIQAMWLGYPGTSGALFMDYIITDQETSPAEVAEQYSEKLAYMPHTFFIGDHANMFPHLKKKAVIDFKSNGHIYDNRIVLNGIDLKAFLDSLPDVKIVKMKCPDGGDNADSSNTALNMPVIPMNTIAEAVIEMINRGQIQITINGFSISNGLATTQINNKAATGEEVPRTIIVTTRSQYGLPEDAIVYCNFNQLYKIDPSTLQMWANILKRVPNSVLWLLRFPAVGEPNIQQYAQNMGLPQNRIIFSPVAPKEEHVRRGQLADVCLDTPLCNGHTTGMDVLWAGTPMVTMPGCHP | binds |  |  |
| OGT BiFC construct (enzyme, UniProt O15294 1-1046) MASSVGNVADSTEPTKRMLSFQGLAELAHREYQAGDFEAAERHCMQLWRQEPDNTGVLLLLSSIHFQCRRLDRSAHFSTLAIKQNPLLAEAYSNLGNVYKERGQLQEAIEHYRHALRLKPDFIDGYINLAAALVAAGDMEGAVQAYVSALQYNPDLYCVRSDLGNLLKALGRLEEAKACYLKAIETQPNFAVAWSNLGCVFNAQGEIWLAIHHFEKAVTLDPNFLDAYINLGNVLKEARIFDRAVAAYLRALSLSPNHAVVHGNLACVYYEQGLIDLAIDTYRRAIELQPHFPDAYCNLANALKEKGSVAEAEDCYNTALRLCPTHADSLNNLANIKREQGNIEEAVRLYRKALEVFPEFAAAHSNLASVLQQQGKLQEALMHYKEAIRISPTFADAYSNMGNTLKEMQDVQGALQCYTRAIQINPAFADAHSNLASIHKDSGNIPEAIASYRTALKLKPDFPDAYCNLAHCLQIVCDWTDYDERMKKLVSIVADQLEKNRLPSVHPHHSMLYPLSHGFRKAIAERHGNLCLDKINVLHKPPYEHPKDLKLSDGRLRVGYVSSDFGNHPTSHLMQSIPGMHNPDKFEVFCYALSPDDGTNFRVKVMAEANHFIDLSQIPCNGKAADRIHQDGIHILVNMNGYTKGARNELFALRPAPIQAMWLGYPGTSGALFMDYIITDQETSPAEVAEQYSEKLAYMPHTFFIGDHANMFPHLKKKAVIDFKSNGHIYDNRIVLNGIDLKAFLDSLPDVKIVKMKCPDGGDNADSSNTALNMPVIPMNTIAEAVIEMINRGQIQITINGFSISNGLATTQINNKAATGEEVPRTIIVTTRSQYGLPEDAIVYCNFNQLYKIDPSTLQMWANILKRVPNSVLWLLRFPAVGEPNIQQYAQNMGLPQNRIIFSPVAPKEEHVRRGQLADVCLDTPLCNGHTTGMDVLWAGTPMVTMPGETLASRVAASQLTCLGCLELIAKNRQEYEDIAVKLGTDLEYLKKVRGKVWKQRISSPLFNTKQYTMELERLYLQMWEHYAAGNKPDHMIKPVEVTESA |  |  | binding [5]: binds |
| HA-tagged OGT (wild-type) (enzyme, UniProt O15294 1-1046) MASSVGNVADSTEPTKRMLSFQGLAELAHREYQAGDFEAAERHCMQLWRQEPDNTGVLLLLSSIHFQCRRLDRSAHFSTLAIKQNPLLAEAYSNLGNVYKERGQLQEAIEHYRHALRLKPDFIDGYINLAAALVAAGDMEGAVQAYVSALQYNPDLYCVRSDLGNLLKALGRLEEAKACYLKAIETQPNFAVAWSNLGCVFNAQGEIWLAIHHFEKAVTLDPNFLDAYINLGNVLKEARIFDRAVAAYLRALSLSPNHAVVHGNLACVYYEQGLIDLAIDTYRRAIELQPHFPDAYCNLANALKEKGSVAEAEDCYNTALRLCPTHADSLNNLANIKREQGNIEEAVRLYRKALEVFPEFAAAHSNLASVLQQQGKLQEALMHYKEAIRISPTFADAYSNMGNTLKEMQDVQGALQCYTRAIQINPAFADAHSNLASIHKDSGNIPEAIASYRTALKLKPDFPDAYCNLAHCLQIVCDWTDYDERMKKLVSIVADQLEKNRLPSVHPHHSMLYPLSHGFRKAIAERHGNLCLDKINVLHKPPYEHPKDLKLSDGRLRVGYVSSDFGNHPTSHLMQSIPGMHNPDKFEVFCYALSPDDGTNFRVKVMAEANHFIDLSQIPCNGKAADRIHQDGIHILVNMNGYTKGARNELFALRPAPIQAMWLGYPGTSGALFMDYIITDQETSPAEVAEQYSEKLAYMPHTFFIGDHANMFPHLKKKAVIDFKSNGHIYDNRIVLNGIDLKAFLDSLPDVKIVKMKCPDGGDNADSSNTALNMPVIPMNTIAEAVIEMINRGQIQITINGFSISNGLATTQINNKAATGEEVPRTIIVTTRSQYGLPEDAIVYCNFNQLYKIDPSTLQMWANILKRVPNSVLWLLRFPAVGEPNIQQYAQNMGLPQNRIIFSPVAPKEEHVRRGQLADVCLDTPLCNGHTTGMDVLWAGTPMVTMPGETLASRVAASQLTCLGCLELIAKNRQEYEDIAVKLGTDLEYLKKVRGKVWKQRISSPLFNTKQYTMELERLYLQMWEHYAAGNKPDHMIKPVEVTESA |  |  | binding [6]: binds |
